In paper PMC11406190 one finds binding data, which are given here for 1 substance.

In this test the target is T1, HA-tagged TBK1 (UniProt Q9UHD2).
T1 sequence: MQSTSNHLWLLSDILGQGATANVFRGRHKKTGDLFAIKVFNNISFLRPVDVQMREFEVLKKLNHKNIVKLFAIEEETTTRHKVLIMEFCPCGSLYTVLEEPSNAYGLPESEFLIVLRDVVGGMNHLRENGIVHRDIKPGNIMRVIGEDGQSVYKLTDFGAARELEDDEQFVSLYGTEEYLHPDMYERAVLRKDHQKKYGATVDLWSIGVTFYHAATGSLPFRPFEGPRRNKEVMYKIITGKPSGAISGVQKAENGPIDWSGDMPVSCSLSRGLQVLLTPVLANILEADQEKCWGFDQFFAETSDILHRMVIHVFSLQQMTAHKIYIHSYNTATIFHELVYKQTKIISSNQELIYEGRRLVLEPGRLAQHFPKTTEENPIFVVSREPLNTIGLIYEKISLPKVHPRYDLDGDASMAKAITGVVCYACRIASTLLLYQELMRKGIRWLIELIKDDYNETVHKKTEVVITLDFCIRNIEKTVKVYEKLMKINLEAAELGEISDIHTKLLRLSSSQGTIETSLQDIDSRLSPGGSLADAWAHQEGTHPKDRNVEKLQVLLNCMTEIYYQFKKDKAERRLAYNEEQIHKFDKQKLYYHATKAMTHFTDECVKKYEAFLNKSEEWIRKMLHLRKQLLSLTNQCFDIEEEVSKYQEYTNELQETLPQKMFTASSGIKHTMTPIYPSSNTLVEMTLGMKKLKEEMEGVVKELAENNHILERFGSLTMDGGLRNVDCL
In words: co-IP.

Results are given in words; binding and its absence hold for the method and conditions named. In cells and extracts the contact can be indirect. Some binding calls cover weakened binding; strength is not graded here. Tags and fused reporters may be left off the sequences shown.

As for “Flag-tagged ZNF268a (from UniProt Q14587-1 1-947)”, the binding result is recorded as “binds”.
